Reference: PubChem BioAssay AID1053208 (Peter MacCallum Cancer Centre, 2014)
Aim: 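Genes whose silencing cuts survival of bone tumour cells only with doxorubicin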 (primary screen). Cells: mouse osteosarcoma cells, early-passage culture from an engineered mouse model of fibroblastic bone tumour. Reagent: siRNA pool against mouse genes, 40 nM. Timing: about 120 h (48 h before drug, then 72 h with drug). Challenge: doxorubicin 100 nM for 72 h, roughly 30-40% inhibitory dose. Measured: 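Luminescent ATP signal taken as viability with or without 100 nM doxorubicin for 72 h; mean of two wells set against non-targeting siRNA and turned into robust z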. Direction: viability z-score with doxorubicin: higher = more viable cells under doxorubicin; viability z-score without drug: higher = more viable cells with knock-down alone. Active means: 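Called active if knock-down leaves viability unchanged without drug (z within -2 to 2) but lowers it with doxorubicin (z at or under -2)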.
The deposit covers about 17,000 reagents; this is a part drawn at random. 788 of them (4.7%) were called active. 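Calls rest on z-score classes alone; an extra cut-off of viability at most 70% of control was not applied to them.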 Unmarked entries are inactive. Further read-outs or replicates are left out here.

After knock-down of Fzd6 (frizzled class receptor 6), the record shows combined z-score class no change with or without drug; viability z-score with doxorubicin 0.34; viability z-score without drug 0.51. With knock-down of Washc5 (WASH complex subunit 5), the screen gave combined z-score class no change with or without drug; viability z-score with doxorubicin -0.67; viability z-score without drug 1.52. For Kcnk13 (potassium channel, subfamily K, member 13) the deposit lists combined z-score class no change with or without drug; viability z-score with doxorubicin 0.11; viability z-score without drug 0.17. With knock-down of Strn4 (striatin, calmodulin binding protein 4), the screen gave combined z-score class no change with or without drug; viability z-score with doxorubicin 0.34; viability z-score without drug -0.34. With knock-down of Slfnl1 (schlafen like 1), the screen gave combined z-score class no change with or without drug; viability z-score with doxorubicin 0.67; viability z-score without drug 0.67. Laptm5 (lysosomal-associated protein transmembrane 5) showed combined z-score class no change with or without drug; viability z-score with doxorubicin 0.45; viability z-score without drug 1.52.

Knock-down of Adam33 (a disintegrin and metallopeptidase domain 33) gave: combined z-score class no change with or without drug; viability z-score with doxorubicin 0.45; viability z-score without drug 0.84. After knock-down of Polg (polymerase (DNA directed), gamma) the results were combined z-score class no change with or without drug; viability z-score with doxorubicin 1.12; viability z-score without drug 0.51. Against Siae (sialic acid acetylesterase), the entry reads combined z-score class high cell count without drug only; viability z-score with doxorubicin 0.79; viability z-score without drug 2.19. Dpy30 (dpy-30, histone methyltransferase complex regulatory subunit) gave combined z-score class no change with or without drug; viability z-score with doxorubicin 1.01; viability z-score without drug 0. Nppc (natriuretic peptide type C) scored combined z-score class no change with or without drug; viability z-score with doxorubicin 1.35; viability z-score without drug 0.67. Qser1 (glutamine and serine rich 1) showed combined z-score class no change with or without drug; viability z-score with doxorubicin -1.12; viability z-score without drug 0.34.
